# In article PMC5996148:
# Amino acid sequences for entries named in this document (tags omitted). A change or cut given only in a name is not applied to a line headed by its entry.
# UniProt Q8WYQ5: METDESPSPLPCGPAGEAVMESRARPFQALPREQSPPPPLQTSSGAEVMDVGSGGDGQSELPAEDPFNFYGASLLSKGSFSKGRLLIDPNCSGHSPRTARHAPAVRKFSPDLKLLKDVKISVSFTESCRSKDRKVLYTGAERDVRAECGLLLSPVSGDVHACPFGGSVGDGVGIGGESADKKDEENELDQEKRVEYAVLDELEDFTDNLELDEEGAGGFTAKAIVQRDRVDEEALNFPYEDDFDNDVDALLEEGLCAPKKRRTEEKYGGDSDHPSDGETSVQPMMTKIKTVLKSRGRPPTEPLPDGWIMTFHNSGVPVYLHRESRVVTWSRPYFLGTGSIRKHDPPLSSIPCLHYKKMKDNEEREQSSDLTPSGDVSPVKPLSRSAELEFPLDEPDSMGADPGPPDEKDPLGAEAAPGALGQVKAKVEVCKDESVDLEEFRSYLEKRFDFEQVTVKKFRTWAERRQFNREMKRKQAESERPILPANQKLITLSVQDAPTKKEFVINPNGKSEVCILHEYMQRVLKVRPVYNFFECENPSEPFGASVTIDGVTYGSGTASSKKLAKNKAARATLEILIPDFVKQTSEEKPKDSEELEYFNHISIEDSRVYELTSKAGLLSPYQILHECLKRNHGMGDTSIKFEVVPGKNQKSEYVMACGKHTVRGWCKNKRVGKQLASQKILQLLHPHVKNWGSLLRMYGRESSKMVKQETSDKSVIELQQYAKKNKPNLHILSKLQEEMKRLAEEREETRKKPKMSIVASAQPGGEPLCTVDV
# UniProt Q9UNQ2: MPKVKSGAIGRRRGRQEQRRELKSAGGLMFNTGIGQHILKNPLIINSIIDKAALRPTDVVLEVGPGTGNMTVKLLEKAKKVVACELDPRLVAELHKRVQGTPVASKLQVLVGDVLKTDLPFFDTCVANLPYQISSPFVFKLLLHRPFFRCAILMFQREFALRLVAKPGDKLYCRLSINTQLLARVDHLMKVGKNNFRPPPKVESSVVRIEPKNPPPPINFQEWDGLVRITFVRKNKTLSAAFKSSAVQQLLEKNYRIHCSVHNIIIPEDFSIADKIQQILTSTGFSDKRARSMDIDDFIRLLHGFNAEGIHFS
# “And” between values parts separate entries of the source, which are not always exact repeats. Equal entries are not always repeated. The list shows a part of the results. For some assays here: The exact form of the protein is not confirmed.
# What was measured:
# Experiment in all cases: protein microarray (ProtoArray v5.0), streptavidin-Alexa Fluor 647
# Conditions in all cases: 3'-biotin; 20 mM Tris (pH 7.5), 5 mM MgCl2, 100 mM KCl, 0.1% Tween-20, A/T-rich and random oligonucleotide blockers; temperature not stated; high values mean tight binding
# DFFA (human) = tested on: DFFA (human)
# DFNA5 (human) = tested on: DFNA5 (human)
# DGCR6 (human) = tested on: DGCR6 (human)
# DGCR8 = DGCR8 (UniProt Q8WYQ5)
# DIABLO (human) = tested on: DIABLO (human)
# DIMT1L = DIMT1L (UniProt Q9UNQ2)
# DIP (human) = tested on: DIP (human)
# DKFZP564O0823 (human) = tested on: DKFZP564O0823 (human)
# DKFZp434B1231 (human) = tested on: DKFZp434B1231 (human)
# DLK2 (human) = tested on: DLK2 (human)
# DLX1 (human) = tested on: DLX1 (human)
# DMD (human) = tested on: DMD (human)
# DMKN (human) = tested on: DMKN (human)
# DMPK (human) = tested on: DMPK (human)
# DMRTC1 (human) = tested on: DMRTC1 (human)
# [1] = tested on: DNA replication complex GINS protein PSF3 (human)
# [2] = tested on: DNA-directed RNA polymerase II subunit RPB11-a (human)
# [3] = tested on: DNA-directed RNA polymerase III subunit RPC9 (human)
# DNAJC12 (human) = tested on: DNAJC12 (human)
# DNAJC5G (human) = tested on: DNAJC5G (human)
sequence,measurement,setting,value
GGGGACAGGGGTATGGGGAGGGG [G4-3 biotinylated (CtG)],binding signal,DFFA (human),-0.342 z-score
same,binding signal,DFNA5 (human),-0.334 z-score
same,binding signal,DGCR6 (human),-0.338 z-score
same,binding signal,DGCR8,3.39 z-score
same,binding signal,DIABLO (human),-0.339 z-score
same,binding signal,DIMT1L,8.31 z-score
same,binding signal,DIP (human),-0.291 z-score
same,binding signal,DKFZP564O0823 (human),-0.324 z-score
same,binding signal,DKFZp434B1231 (human),-0.325 z-score
same,binding signal,DLK2 (human),-0.308 z-score
same,binding signal,DLX1 (human),-0.329 z-score
same,binding signal,DMD (human),-0.334 z-score and -0.337 z-score
same,binding signal,DMKN (human),-0.3 z-score
same,binding signal,DMPK (human),-0.316 z-score
same,binding signal,DMRTC1 (human),-0.326 z-score
same,binding signal,[1],-0.323 z-score
same,binding signal,[2],-0.329 z-score
same,binding signal,[3],-0.308 z-score
same,binding signal,DNAJC12 (human),-0.327 z-score
same,binding signal,DNAJC5G (human),-0.327 z-score

# Exported tab-delimited: entries from further up.
sequence	measurement	setting	value
GGGGACAGGGGTATGGGGAGGGG [G4-3 biotinylated (CtG)]	binding signal	DGCR6 (human)	-0.338 z-score
same	binding signal	DLK2 (human)	-0.308 z-score
